Laboratory results taken from US6800750B1, “Mc1-1 gene regulatory elements and a pro-apoptotic mc1-1 variant” (Dartmouth College, priority 1999, dated 2004).
No constants are given. Whether binding was seen depends on the method and setting. Some entries that bind do so weakly or less than the wild type.

Biological target: T1, Elk-1 member of the Ets family (UniProt P19419)
T1 sequence (looked up): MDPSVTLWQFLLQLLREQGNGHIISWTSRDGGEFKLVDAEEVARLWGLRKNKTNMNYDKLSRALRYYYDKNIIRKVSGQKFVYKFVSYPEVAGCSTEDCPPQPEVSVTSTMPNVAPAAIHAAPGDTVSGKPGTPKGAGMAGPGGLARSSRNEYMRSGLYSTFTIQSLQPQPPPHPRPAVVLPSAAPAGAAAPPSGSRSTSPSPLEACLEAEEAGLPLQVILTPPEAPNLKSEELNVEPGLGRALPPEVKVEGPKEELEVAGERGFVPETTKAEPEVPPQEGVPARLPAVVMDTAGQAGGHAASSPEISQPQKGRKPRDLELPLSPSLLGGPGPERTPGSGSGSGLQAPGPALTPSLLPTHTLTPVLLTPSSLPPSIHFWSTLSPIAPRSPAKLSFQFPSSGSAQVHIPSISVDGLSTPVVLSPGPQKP
Assay: EMSA; both proteins in one complex (Complex I) on the Mcl-1 DNA probe, shown by supershift with either antibody

B1: serum response element (SRE) binding factor (SRF) (protein, UniProt P11831 1-508, looked up)
chain: MLPTQAGAAAALGRGSALGGSLNRTPTGRPGGGGGTRGANGGRVPGNGAGLGPGRLEREAAAAAATTPAPTAGALYSGSEGDSESGEEEELGAERRGLKRSLSEMEIGMVVGGPEASAAATGGYGPVSGAVSGAKPGKKTRGRVKIKMEFIDNKLRRYTTFSKRKTGIMKKAYELSTLTGTQVLLLVASETGHVYTFATRKLQPMITSETGKALIQTCLNSPDSPPRSDPTTDQRMSATGFEETDLTYQVSESDSSGETKDTLKPAFTVTNLPGTTSTIQTAPSTSTTMQVSSGPSFPITNYLAPVSASVSPSAVSSANGTVLKSTGSGPVSSGGLMQLPTSFTLMPGGAVAQQVPVQAIQVHQAPQQASPSRDSSTDLTQTSSSGTVTLPATIMTSSVPTTVGGHMMYPSPHAVMYAPTSGLGDGSLTVLNAFSQAPSTMQVSHSQVQEPGGVPQVFLTASSGTVQIPVSAVQLHQMAVIGQQAGSSSNLTELQVVNLDTAHSTKSE
For B1, which binding is on record?
The binding was “binds”.
